Where “and” joins values, the source holds several entries; their conditions need not be identical. Equal values may be shown once. Where a name gives a salt, the structure may show the parent alone. The list shows a part of the results. Most values come without repeats; read them as rough.
Test system: hsa-miR-132-3p
Assay: miR-132-3p level in NGN2-iNs after compound treatment (TMM-normalised, ComBat batch-corrected) (batch-corrected normalised expression (arbitrary units)); higher = higher miR-132-3p expression
Conditions: 10 µM; 24 h; human iPSC-derived NGN2 neurons (BR43)

| SMILES | miR-132-3p level in NGN2-iNs |
| --- | --- |
| O=S(=O)(c1cccc2cnccc12)N1CCCNCC1 [Fasudil (HA-1077) HCl] | 0.202 |
| COc1cc2nc(N3CCCN(C)CC3)nc(NC3CCN(Cc4ccccc4)CC3)c2cc1OC | -0.189 |
| CC(NCCc1ccc(O)cc1)C(O)c1ccc(O)cc1 (stereo not drawn) [Ritodrine HCl] | -1.16 |
| CCCc1nn(C)c2c(=O)[nH]c(-c3cc(S(=O)(=O)N4CCN(C)CC4)ccc3OCC)nc12 [Sildenafil Citrate] | 0.56 |
| CN(C[C@@H]1COCCO1)S(=O)(=O)Nc1ccc2ccc3ncc(-c4cnn(C)c4)cc3c(=O)c2c1 | -0.868 |
| CCOC(=O)CC(=O)N1CCSC1COc1ccccc1OC (stereo not drawn) [Moguisteine] | -1.21 |
| CC(=O)Oc1ccc(C(c2ccc(OC(C)=O)cc2)c2ccccn2)cc1 [Bisacodyl] | -0.0212 |
| O=C(CSc1nc2c(c(=O)n1-c1ccccc1)SCC2)Nc1ccc(-c2ccccc2)cn1 | -0.433 |
| Nc1ccc(C(=O)O)c(O)c1 [Sodium 4-Aminosalicylate] | 0.000548 |
| O=C1O[C@H]([C@@H](O)CO)C(O)=C1O [Vitamin C] | 1.03 |
| Cc1cccc(C)c1OCC(=O)N[C@@H](Cc1ccccc1)[C@@H](O)C[C@H](Cc1ccccc1)NC(=O)[C@H](C(C)C)N1CCCNC1=O [Lopinavir] | -2.85 |
| O=C(O)c1ccccc1Nc1cccc(C(F)(F)F)c1 [Flufenamic acid] | 0.0147 |
| O=C(O)Cn1nnc(-c2cc(N3CCC(Oc4cc(F)ccc4Br)CC3)no2)n1 | 0.452 |
| CCC(=O)O[C@]1(C(=O)SCF)[C@H](C)C[C@H]2[C@@H]3C[C@H](F)C4=CC(=O)C=C[C@]4(C)[C@@]3(F)[C@@H](O)C[C@@]21C [Fluticasone propionate] | -0.379 |
| CC(C)[C@H](O)C(=O)N[C@@H](C)C(=O)N[C@@H]1C(=O)N(C)CCc2ccccc21 | 0.0343 |
| Cc1[nH]nc2ccc(-c3cncc(OC[C@@H](N)Cc4ccccc4)c3)cc12 | -0.306 |
| CCCCC(=O)N(Cc1ccc(-c2ccccc2-c2nnn[nH]2)cc1)[C@H](C(=O)O)C(C)C [Valsartan] | -0.316 |
| Cc1ccc(Nc2nccc(N(C)c3ccc4c(C)n(C)nc4c3)n2)cc1S(N)(=O)=O [Pazopanib] | -1.08 |
| Nc1cc(C(F)(F)F)c(-c2cc(N3CCOCC3)nc(N3CCOCC3)n2)cn1 [Buparlisib (BKM120, NVP-BKM120)] | -0.232 |
| Cc1c(C(=O)Nc2ccc(N3C[C@@H](C)O[C@@H](C)C3)nc2)cccc1-c1ccc(OC(F)(F)F)cc1 [Sonidegib (Erismodegib, NVP-LDE225)] | -1.08 |
| Cc1ccc(Sc2cncc3sc(C(N)=O)cc23)cc1 | -0.151 |
| COc1cccc(-c2cc(F)ccc2C2Cc3nc(N)nc(C)c3C(=O)N2)n1 (stereo not drawn) | -0.573 |
| O=c1cc(N2CCOCC2)oc2c(-c3ccccc3)cccc12 | -2.85 |
| O=C(Nc1ccccc1)N1CCN(c2nc(-c3ccccc3)ns2)CC1 | -1.38 |
| CCc1ccc(OCc2ccccc2C(=O)Nc2ccc3nc(C)cc(N)c3c2)cc1 | -1.51 |
| CN(C)CCc1c[nH]c2ccc(CS(=O)(=O)N3CCCC3)cc12 [Almotriptan Malate] | 1.87 |

A few values from the entries so far:
Under miR-132-3p level in NGN2-iNs, O=C(O)Cn1nnc(-c2cc(N3CCC(Oc4cc(F)ccc4Br)CC3)no2)n1 is entered as 0.452
Under miR-132-3p level in NGN2-iNs, Cc1c(C(=O)Nc2ccc(N3C[C@@H](C)O[C@@H](C)C3)nc2)cccc1-c1ccc(OC(F)(F)F)cc1 [Sonidegib (Erismodegib, NVP-LDE225)] is entered as -1.08
Under miR-132-3p level in NGN2-iNs, CCOC(=O)CC(=O)N1CCSC1COc1ccccc1OC (stereo not drawn) [Moguisteine] is entered as -1.21
Under miR-132-3p level in NGN2-iNs, CN(C[C@@H]1COCCO1)S(=O)(=O)Nc1ccc2ccc3ncc(-c4cnn(C)c4)cc3c(=O)c2c1 is entered as -0.868
Under miR-132-3p level in NGN2-iNs, O=C(O)c1ccccc1Nc1cccc(C(F)(F)F)c1 [Flufenamic acid] is entered as 0.0147

Continued:

| SMILES | miR-132-3p level in NGN2-iNs |
| --- | --- |
| Cn1nc(C(C)(C)C)cc1C(=O)N[C@@H](Cc1cccc(Cl)c1)C(=O)NCC#N [Cathepsin Inhibitor 1] | -1.44 |
| CN(c1ncccc1CNc1nc(Nc2ccc3c(c2)CC(=O)N3)ncc1C(F)(F)F)S(C)(=O)=O | -0.784 and -0.832 and -1.44 |
| COC(=O)/C=C/C(=O)OC [Dimethyl Fumarate] | 1.04 |
| O=C(NC(Cc1cc(=O)[nH]c2ccccc12)C(=O)O)c1ccc(Cl)cc1 (stereo not drawn) [Rebamipide] | 0.656 |
| CC1(C)C=C(CN2C/C(=C\c3ccc(F)cc3)C(=O)/C(=C/c3ccc(F)cc3)C2)C(C)(C)N1O | -0.22 |
| NNC(=O)c1ccncc1 [Isoniazid] | -0.437 |
| O=C(O)CCCN1CCC(O[C@@H](c2ccc(Cl)cc2)c2ccccn2)CC1 [Bepotastine Besilate] | -0.934 |
| C[C@H]1C[C@H]2[C@@H]3CCC4=CC(=O)C=C[C@]4(C)[C@H]3C(=O)C[C@]2(C)[C@@]1(O)C(=O)CO [Meprednisone] | -0.0182 |
| Cc1ccc(S(=O)(=O)OCC(=O)Nc2ccc(C(=O)O)c(O)c2)cc1 | -0.264 |
| O=c1[nH]c(=O)n([C@H]2C[C@H](O)[C@@H](CO)O2)cc1I [Idoxuridine] | -0.161 |
| CN1CCN(c2ccc3nc(-c4c(N)c5c(F)cccc5[nH]c4=O)[nH]c3c2)CC1 [Dovitinib (TKI-258)] | 0.754 |
| CN1CCN(c2ccc3nc(-c4c(N)c5c(F)cccc5[nH]c4=O)[nH]c3c2)CC1 [Dovitinib (TKI-258) Dilactic Acid] | 0.666 |
| C=CCNC1=C2C[C@@H](C)C[C@H](OC)[C@H](O)[C@@H](C)/C=C(\C)[C@H](OC(N)=O)[C@@H](OC)/C=C\C=C(/C)C(=O)NC(=CC1=O)C2=O [Tanespimycin (17-AAG)] | 0.0559 |
| Cc1cccc(N(C)C(=S)Oc2ccc3ccccc3c2)c1 [Tolnaftate] | 0.608 |
| O=C(O)c1cccnc1 [Nicotinic Acid] | -1.02 |
| COc1ccc(-c2ccc3cc(C(=O)O)ccc3c2)cc1C12CC3CC(CC(C3)C1)C2 [Adapalene] | -0.298 |
| COc1ccc(-c2cc(=O)c3c(OC)c(OC)c(OC)c(OC)c3o2)cc1 [Tangeretin] | 1.07 |
| CN1C(C(=O)Nc2ccccn2)=C(O)c2sc(Cl)cc2S1(=O)=O [Lornoxicam] | -1.05 |
| CC12CC3CC(C)(C1)CC(N)(C3)C2 [Memantine HCl] | -0.00424 |
| Cc1ccc(CNc2ncnc3ccc(-c4ccc(CO)o4)cc23)o1 | 1.68 |
| O=C(Nc1cccnc1)N1CCC(Cc2cccc(Oc3ccc(C(F)(F)F)cn3)c2)CC1 | 0.503 |
| CC(C)c1nc(CN(C)C(=O)N[C@@H](CCN2CCOCC2)C(=O)N[C@H](CC[C@H](Cc2ccccc2)NC(=O)OCc2cncs2)Cc2ccccc2)cs1 [Cobicistat (GS-9350)] | -1.75 |
| Cc1cccc(-c2nn3c(c2-c2ccnc4ccc(C(N)=O)cc24)CCC3)n1 | -0.308 |
| Cc1ccc(C(=O)Nc2cccc(C(F)(F)F)c2)cc1Nc1nc(-c2cccnc2)nc2c1cnn2C | -2.22 |
| Cc1noc(-c2ccc(CSCCC(=O)O)cc2)c1NC(=O)OC(C)c1ccccc1Cl (stereo not drawn) | 0.103 |
| COc1ccc(-c2cc(=O)c3c(OC)c(OC)c(OC)c(OC)c3o2)cc1OC | 1 |

| SMILES | miR-132-3p level in NGN2-iNs |
| --- | --- |
| O=c1cc[nH]c(=O)[nH]1 [Uracil] | 0.0711 |
| CCC[C@@H]1C[C@@H](C(=O)N[C@@H]([C@H]2O[C@H](SC)[C@H](O)[C@@H](O)[C@H]2O)[C@@H](C)O)N(C)C1 [Lincomycin HCl] | -0.355 |
| N#Cc1c(Oc2ccc(F)c(NC(=O)Cc3cccc(C(F)(F)F)c3)c2)ccc2nc(NC(=O)C3CC3)sc12 | -0.319 |
| Nc1nc(N)c2nc(-c3ccccc3)c(N)nc2n1 [Triamterene] | 0.577 |
| C=C1CC[C@H](O)C/C1=C/C=C1\CCC[C@]2(C)[C@@H]([C@H](C)/C=C/[C@H](C)C(C)C)CC[C@@H]12 [Vitamin D2] | -1.06 |
| C=CC[N+]1([C@H]2C[C@H]3[C@@H]4CC[C@H]5C[C@H](O)[C@@H](N6CCOCC6)C[C@]5(C)[C@H]4CC[C@]3(C)[C@H]2OC(C)=O)CCCC1 [Rocuronium Bromide] | -0.0964 |
| Cc1ccc(C(=O)Cn2c3c(sc2=N)CCCC3)cc1 [Pifithrin-α (PFTα) HBr] | 1.28 |
| CC(C)(C)NC(=O)[C@H]1CC[C@H]2[C@@H]3CC[C@H]4NC(=O)C=C[C@]4(C)[C@H]3CC[C@]12C [Finasteride] | -0.175 |
| O=[N+]([O-])c1cn2c(n1)OC[C@@H](OCc1ccc(OC(F)(F)F)cc1)C2 | 0.14 |
| Cn1nnc2c(C(N)=O)ncn2c1=O [Temozolomide] | 0.583 |
| CCCCOc1ccc(C(=O)CCN2CCCCC2)cc1 [Dyclonine HCl] | -0.448 |
| COc1ccc(CCC(=O)Nc2nc3ccc(Cl)cc3s2)cc1OC | -0.366 |
| Cc1cc2c(C(=O)NCC(C)c3ccccc3)c(O)c(O)cc2c(O)c1-c1c(C)cc2c(C(=O)NCC(C)c3ccccc3)c(O)c(O)cc2c1O (stereo not drawn) [Sabutoclax] | -2.59 |
| O=C(c1ccccc1)c1ccc2nc(NC(=O)c3csc(C4CCN(c5ncnc6ccsc56)CC4)n3)[nH]c2c1 | -0.407 |
| Cn1c(N2CCCCS2(=O)=O)nc(C(=O)NCc2ccc(F)cc2)c(O)c1=O | -2.85 |
| Cn1cnc(=N)c2[nH]cnc21 [3-Methyladenine (3-MA)] | -0.263 |
| C[N+](C)(C)CC(O)CC(=O)[O-] (racemic) [DL-Carnitine HCl] | 0.0865 |
| CC(C)=CCCC(C)(OC1OC(COC2OCC(O)C(O)C2O)C(O)C(O)C1O)C1CCC2(C)C1C(O)CC1C3(C)CCC(OC4OC(CO)C(O)C(O)C4O)C(C)(C)C3CCC12C (stereo not drawn) [Gynostemma Extract] | -0.704 |
| NCCc1ccc(O)c(O)c1 [Dopamine HCl] | -0.568 |
| C[C@H](CS)C(=O)N1CCC[C@H]1C(=O)O [Captopril] | -0.477 |
| Cn1cnc2c(F)c(Nc3ccc(Br)cc3Cl)c(C(=O)NOCCO)cc21 [Selumetinib (AZD6244)] | 0.16 |
| Nc1nc(N)c2nc(-c3cccc(O)c3)c(-c3cccc(O)c3)nc2n1 | -0.191 |
| COc1ccc(CNc2nc(N3CCC[C@H]3CO)ncc2C(=O)NCc2ncccn2)cc1Cl [Avanafil] | 0.13 |
| CN1CCN(C(=O)c2cc3cc(Cl)ccc3[nH]2)CC1 | 1.06 |
| OC[C@@H](O)CN1CCN(c2ccccc2)CC1 [Levodropropizine] | -0.217 |
| Cc1c(Nc2ncccc2C(=O)O)cccc1C(F)(F)F [Flunixin Meglumin] | 0.692 |

Source: the supplement of paper PMC10663445
